Results taken from US11986478B2 (priority 2021, dated 2024).
At least one structure is not confirmed: it was looked up by name or label, or the drawing left a doubt.

Experiments:
[1] = tested on: MERS-CoV; type: cell-based
[2] = tested on: SARS-CoV-2; set-up: species or system golden Syrian hamster; details: hamster, in vivo
[3] = tested on: SARS-CoV-2; type: cell-based

SMILES: CCC(CC)COC(=O)[C@H](C)N[P@](=O)(OC[C@H]1O[C@@](C#N)(c2ccc3c(N)ncnn23)[C@H](O)[C@@H]1O)Oc1ccccc1 [Remdesivir, reference compound]
- inhibition of virus replication by NP antigen immunofluorescence [1]: significant inhibition of virus replication
- SARS-CoV-2 N expression in lung by immunofluorescence [2]: reduced N expression
- SARS-CoV-2 genome copies in the lungs [2]: suppression
- lung damage by H & E staining [2]: improved morphology and milder infiltrations
- inhibition of virus replication by NP antigen immunofluorescence [3]: significant inhibition of virus replication
